# From article PMC11087964
# These are yes or no findings as the source states them, for the method shown. In cells and extracts the contact can be indirect. These calls come from enrichment with a bait or labelling near it, and not all partners need be listed.
# B1: striatin (protein, UniProt P70483 1-780)
# chain: MDEQAGPGVFFSNNHPGAGGAKGLGPLAEAAAAGDGAAAAGAARAQYSLPGILHFLQHEWARFEVERAQWEVERAELQAQIAFLQGERKGQENLKKDLVRRIKMLEYALKQERAKYHKLKYGTELNQGDMKPPSYDSDEGNETEVQPQQNSQFMWKQGRQLLRQYLQEVGYTDTILDVKSKRVRALLGFSSDVTDREDDKNQDSVINGTEAEVKETAMIGKSELTDSASVLDNFKFLENAAADFSDEDEDEDIDGREKSVIDTSTIVRKKPLPDTSEDRDTKEALKEFDFLVASEEGDNESRSAGDGTDWEKEDQCLTPERWNVDQGVITRLKEQYKKERKGKKGVKRPNRSKLQDMLANLRDVDELPSLQPSVGSPSRPSSSRLPEQDISRADEVEALTFPPSSGKSFIMGADEALESELGLGELAGLTVANEADSLAYDIANNKDALRKTWNPKFTLRSHFDGIRALAFHPIEPVLITASEDHTLKMWNLQKTAPAKKSTSLDVEPIYTFRAHKGPVLCVVMSSNGEQCYSGGTDGLIQSWSTTNPNVDPYDSYDPSVLRGPLLGHTDAVWGLAYSAAHQRLLSCSADGTLRLWTTTEVAPALTVFNDNQELGIPASVDLVSSDPSHMVASFSKGYTSIFNMETQQRILTLESNVDSTASSSCQINRVISHPTLPISITAHEDRHIKFYDNNTGKLIHSMVAHLEAVTSLAVDPNGLYLMSGSHDCSIRLWNLESKTCIQEFTAHRKKFEESIHDVAFHPSKCYIASAGADALAKVFV
# B2: striatin3 (protein, UniProt P58405 1-794)
# chain: MDELAGGGGGQGMAVPPRPQQGPGGNLSLPPGANGAPGGGGPPAAETAGPPAGPELSRPQQYTIPGILHYIQHEWARFEMERAHWEVERAELQARIAFLQGERKGQENLKKDLVRRIKMLEYALKQERAKYHKLKYGTELNQGDLKMPTFESEETKDAEAPPAQNSQLTWKQGRQLLRQYLQEVGYTDTILDVRSQRVRSLLGLSNSEPNGSIEAKNLEQILNGGESPKQKGQEIKRPSGDVLETFNFLENADDSDEEENDMIEGIPEGKDKLRIHKHKIGNEGLAADLTDDPDTEEALKEFDFLVTAEDGEGAGEARSSGDGTEWDKDDLSPTAEVWDVDQGLMSKLKEQYKKERKGKRGAKRVNRTNLCDMITDLGDDELPHIPSGIINQSRSASTRMTDHEGSRAEEAEPITFPSGGGKSFIMGSDDVLLSVLGLGDLADLTVTNDADYSYDLPANKDALRKTWNPKYTLRSHFDGVRALAFHPVEPVLVTASEDHTLKLWNLQKTVPAKKSASLDVEPIYTFRAHIGPVLSLAISSNGEQCFSGGIDATIQWWNMPSPNVDPYDTYESHVLAGTLVAHTDAVWGLAYSGIKNQLLSCSADGTIRLWNPQEKLPCICTYNGDKEHGIPTSVDFIGCDPAHMVTSFNTGSAIIYDLETSQSLVMLSSQVDSGLQSSNHINRVVSHPTLPVTITAHEDRHIKFFDNKTGKMIHSMVAHLDAVTSLAVDPNGIYLMSGSHDCSIRLWNLDSKTCVQEITAHRKKLDESIYDVAFHPSKAYIASAGADALAKVFV
# B3: Mps one binder kinase activator-like 4 (protein, UniProt Q9QYW3 1-225)
# chain: MVMAEGTAVLRRNRPGTKAQDFYNWPDESFDEMDSTLAVQQYIQQNIRADCSNIDKILEPPEGQDEGVWKYEHLRQFCLELNGLAVKLQSECHPDTCTQMTATEQWIFLCAAHKTPKECPAIDYTRHTLDGAACLLNSNKYFPSRVSIKESSVAKLGSVCRRIYRIFSHAYFHHRQIFDEYENETFLCHRFTKFVMKYNLMSKDNLIVPILEEEVQNSVSGESEA
# B4: sarcolemma-associated protein (Slmap) (protein, UniProt P0C219 1-858)
# chain: MPSALAIFTCRPNSHPFQERHVYLDEPIKIGRSVARCRPAQNNATFDCKVLSRNHALVWFDHKTSKFYLQDTKSSNGTFINSQRLSRGSEESPPCEILSGDIIQFGVDVTENTRKVVTHGCIVSTIKLFLPDGMEARLRSDDVIHAPLPSPVDKVAANTPSMYSQELFQLSQYLQEALHREQMLEQKLATLQRLLAITQEASDTSWQALIDEDRLLSRLEVMGNQLQACSKNQTEDSLRKELVALQEDKHSYETTAKESLRRVLQEKIEVVRKLSEVERSLSNTEDECTHLREMNERTQEELRELANKYNGAVNEIKDLSDKLKAAEGKQEEIQQKGQAEKKELQAKIDDMEEKEQELQAKIEALQADNDFTNERLTALQVVRLEPLQEKTLKECSSLGGIQVDDFLPKINGSTEKEERLLSKSGGDCTFIHQFIECQKKKLMVQGHLTKVVEESKLSKEENQAKAKESDLSDTLSPSKEKSSDDTTDDAQMDEQDLNEPLAKVSLLKDDDLQGTQAETEAKQDTQHLRKELVEAQELARASKQKCFDLQAALLEEERKAYRNQVEESAKQIQVLQVVQLQRLHMDMENLQEEKDTEISSTRDKLLSAQDEILLLHQAAAKAVSERDTDFMSLQEELKKVRAELEGWRKAASEYEEEIRSLQSTFQLRCQQCEVQQREEATRLQGGELEKLKKEWDVLENECRSLKKENVLLSSELQRQEKELHNNSQKQSLELTSDLSILQMTRKELENQMGSLKEQHLRDEADLKTLLSKAENQAKDVQKEYEKTQTVLSELKLKFEMTEQEKQSITDELKQCKDNLKLLREKGNNKPWPWMPMVAALVAVTAMVLYVPGLARASP
# B5: junction plakoglobin (protein, UniProt Q6P0K8 1-745)
# chain: MEVMNLIEQPIKVTEWQQTYTYDSGIHSGVNTCVPSVSSKGLLDEDDTCGRQYTLKKTTTYTQGVPQSQGDLEYQMSTTARAKRVREAMCPGVSGEDSSLLLATQVEGQTTNLQRLAEPSQLLKSAIVHLINYQDDAELATRALPELTKLLNDEDPVVVTKAAMIVNQLSKKEASRRALMGSPQLVAAVVRTMQNTSDLDTARCTTSILHNLSHHREGLLAIFKSGGIPALVRMLSSPVESVLFYAITTLHNLLLYQEGAKMAVRLADGLQKMVPLLNKNNPKFLAITTDCLQLLAYGNQESKLIILANGGPQGLVQIMRNYSYEKLLWTTSRVLKVLSVCPSNKPAIVEAGGMQALGKHLTSNSPRLVQNCLWTLRNLSDVATKQEGLENVLKILVNQLSVDDVNVLTCATGTLSNLTCNNSKNKTLVTQNSGVEALIHAILRAGDKDDITEPAVCALRHLTSRHPEAEMAQNSVRLNYGIPAIVKLLNQPNQWPLVKATIGLIRNLALCPANHAPLQEAAVIPRLVQLLVKAHQDAQRHVAAGTQQPYTDGVRMEEIVEGCTGALHILARDPMNRMEIFRLNTIPLFVQLLYSSVENIQRVAAGVLCELAQDKEAADAIDAEGASAPLMELLHSRNEGTATYAAAVLFRISEDKNPDYRKRVSVELTNSLFKHDPAAWEAAQSMIPINEPYADDMDATYRPMYSSDVPLDPLDMHMDMDGDYPMDTYSDGLRPPYPAADHMLA
# Target: Mst4 overexpressed from adenovirus (AdMST4) in neonatal rat ventricular cardiomyocytes (rat)
# Experiment: affinity purification with mass spectrometry; Co-IP of Mst4 from NRVCM after adenoviral LacZ or Mst4 overexpression, in absence or presence of the kinase inhibitor hesperadin; eluates (n = 2) analysed by LC-MS/MS; ratios of MST4 to LacZ samples
row,Binder,binding
1,B1,binds
2,B2,binds
3,B3,binds
4,B4,binds
5,B5,binds
